{"source": "patent US7144859", "about": "(dated 2006)", "test": "general procedure: Fmoc solid-phase peptide synthesis; Rink amide MBHA; HBTU (printed HBUT) / diisopropylethyl amine", "settings": "whole synthesis, scale 0.087 mmole", "data": [{"substance": "H-Cpa-cyclo(D-Cys-Pal-D-Trp-Lys-β-Ala-Cys)-Nal-NH2", "values": [{"measurement": "isolated mass", "value": 26, "unit": "mg"}]}]}
